Measurements reported in PubChem BioAssay AID1053208 (Peter MacCallum Cancer Centre, 2014)

Assay: 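Synthetic lethal interactions between gene loss and doxorubicin in osteosarcoma cells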 (primary screen)
Cells: mouse osteosarcoma cells, early-passage culture from an engineered mouse model of fibroblastic bone tumour
Knock-down reagent: siRNA pool against mouse genes, 40 nM
Timing: about 120 h (48 h before drug, then 72 h with drug)
Challenge: doxorubicin 100 nM for 72 h, roughly 30-40% inhibitory dose
Detection: 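Luminescent ATP signal taken as viability with or without 100 nM doxorubicin for 72 h; mean of two wells set against non-targeting siRNA and turned into robust z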
Reading the numbers: viability z-score with doxorubicin: higher = more viable cells under doxorubicin; viability z-score without drug: higher = more viable cells with knock-down alone
Hit rule: 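Called active if knock-down leaves viability unchanged without drug (z within -2 to 2) but lowers it with doxorubicin (z at or under -2)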
Shown is a random part of about 17,000 reagents. Of all reagents, 788 (4.7%) were called active. 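Calls rest on z-score classes alone; an extra cut-off of viability at most 70% of control was not applied to them.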 Entries without a mark were called inactive. Not all columns of the deposit are shown.

With knock-down of Cntn4 (contactin 4) the results were combined z-score class no change with or without drug; viability z-score with doxorubicin 1.91; viability z-score without drug 1.18.
For Nmt1 (N-myristoyltransferase 1), the entry reads combined z-score class no change with or without drug; viability z-score with doxorubicin 0.11; viability z-score without drug -0.51.
Cmtm2b (CKLF-like MARVEL transmembrane domain containing 2B) showed combined z-score class no change with or without drug; viability z-score with doxorubicin -0.9; viability z-score without drug -1.01.
Against Zfp113 (zinc finger protein 113) the deposit lists combined z-score class low cell count without drug only; viability z-score with doxorubicin -0.22; viability z-score without drug -3.04.
Silencing of Dym (dymeclin) gave: combined z-score class no change with or without drug; viability z-score with doxorubicin -0.67; viability z-score without drug 1.52.
Mpl (Mpl proto-oncogene, thrombopoietin receptor) gave combined z-score class no change with or without drug; viability z-score with doxorubicin -1.12; viability z-score without drug 0.51.
After knock-down of Drgx (dorsal root ganglia homeobox), the screen gave combined z-score class no change with or without drug; viability z-score with doxorubicin 0.9; viability z-score without drug 0.17.
Actr8 (ARP8 actin-related protein 8) gave combined z-score class no change with or without drug; viability z-score with doxorubicin 0.22; viability z-score without drug 1.18.
Depletion of Iqcj (IQ motif containing J) resulted in: combined z-score class no change with or without drug; viability z-score with doxorubicin -1.57; viability z-score without drug -0.17.
Depletion of Il23a (interleukin 23, alpha subunit p19) came out at: combined z-score class no change with or without drug; viability z-score with doxorubicin 0.67; viability z-score without drug 1.18.
With knock-down of Casp8 (caspase 8) the results were combined z-score class no change with or without drug; viability z-score with doxorubicin 0.34; viability z-score without drug 0.84.
Fam228b (family with sequence similarity 228, member B) scored combined z-score class no change with or without drug; viability z-score with doxorubicin 0.9; viability z-score without drug 0.84.
After knock-down of Spin1 (spindlin 1) the results were combined z-score class no change with or without drug; viability z-score with doxorubicin 1.8; viability z-score without drug -0.51.
With knock-down of Spata6 (spermatogenesis associated 6) the results were combined z-score class no change with or without drug; viability z-score with doxorubicin 0.79; viability z-score without drug -0.84.
For Arl6ip1 (ADP-ribosylation factor-like 6 interacting protein 1), the entry reads combined z-score class no change with or without drug; viability z-score with doxorubicin 1.35; viability z-score without drug 0.17.
Topbp1 (topoisomerase (DNA) II binding protein 1) scored combined z-score class low cell count with doxorubicin only (active); viability z-score with doxorubicin -5.06; viability z-score without drug -0.51.
Against Stag1 (STAG1 cohesin complex component), the values are combined z-score class no change with or without drug; viability z-score with doxorubicin 1.12; viability z-score without drug 1.18.
Gsr (glutathione reductase) scored combined z-score class no change with or without drug; viability z-score with doxorubicin -0.45; viability z-score without drug -1.01.
For Ccni (cyclin I), the entry reads combined z-score class no change with or without drug; viability z-score with doxorubicin -0.67; viability z-score without drug -0.17.
Ocln (occludin) showed combined z-score class no change with or without drug; viability z-score with doxorubicin 0.67; viability z-score without drug -0.17.
Silencing of Adss1 (adenylosuccinate synthase 1) came out at: combined z-score class no change with or without drug; viability z-score with doxorubicin 0.67; viability z-score without drug -0.84.
With knock-down of Pcdha7 (protocadherin alpha 7), the record shows combined z-score class no change with or without drug; viability z-score with doxorubicin -1.12; viability z-score without drug -0.17.
Against Atf1 (activating transcription factor 1), the values are combined z-score class no change with or without drug; viability z-score with doxorubicin -1.12; viability z-score without drug -0.67.
After knock-down of C130026L21Rik (RIKEN cDNA C130026L21 gene) the results were combined z-score class no change with or without drug; viability z-score with doxorubicin 0.45; viability z-score without drug -0.17.
After knock-down of Zfp36 (zinc finger protein 36) the results were combined z-score class no change with or without drug; viability z-score with doxorubicin 1.69; viability z-score without drug 0.84.
Chrna4 (cholinergic receptor, nicotinic, alpha polypeptide 4) showed combined z-score class no change with or without drug; viability z-score with doxorubicin -1.12; viability z-score without drug -0.34.
After knock-down of Timp3 (tissue inhibitor of metalloproteinase 3), the screen gave combined z-score class no change with or without drug; viability z-score with doxorubicin 1.01; viability z-score without drug 0.84.
Silencing of Fgfrl1 (fibroblast growth factor receptor-like 1) came out at: combined z-score class no change with or without drug; viability z-score with doxorubicin -0.9; viability z-score without drug 0.84.
